Assay results taken from PubChem BioAssay AID504834 (National Center for Advancing Translational Sciences (NCATS), 2011).
Where “and” joins values, the source holds several entries; their conditions need not be identical. Equal entries are not always repeated. About 22,000 (6.9%) of roughly 320,000 compounds were called active. The shares of active, inactive and inconclusive entries below differ from those in the screen. Calls come from the whole dose curve; as a rule, active = well fitted inhibition curve with a large enough effect; inconclusive = small, poorly fitted or top-dose-only effect, or another doubt; inactive = no such curve, though single readings can be large or run the other way. Where the call is inconclusive, the potency comes from a doubtful curve fit.

Assay: Primary qHTS for delayed death inhibitors of the malarial parasite plastid, 96 hour incubation
Settings: P. falciparum luciferase reporter growth; series mostly up to 28.7 µM; activity change, negative = inhibition: at the top concentration
Summary of the method: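 P. falciparum expressing integrated firefly luciferase grown in erythrocytes (2% hematocrit, 0.05% parasitemia final) with compounds for 96 hours at 37 C, 5% CO2. Growth inhibition read as loss of luminescence after adding luciferase detection reagent.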
% is set by controls: 0 for no effect and ±100 for the full control effect; potency is the fitted concentration of half-maximal effect.

Compound | activity change, negative = inhibition | Potency
COc1ccc(-n2nnnc2-c2cn(C)nc2C(F)(F)F)cc1 | inactive: 33.3% | –
CC1(C)C(=O)Nc2ccccc2N1C(=O)COC(=O)C12CC3CC(CC(O)(C3)C1)C2 | – | inconclusive: 4.15 µM [inhibitor, single point]
COc1ccc(C(=O)Nc2ccc3oc(-c4cccc(F)c4)nc3c2)cc1OC | – | inconclusive: 18.5 µM [inhibitor, single point]
C=CCSc1nc2c(cnn2-c2ccc(C)c(C)c2)c(=O)[nH]1 | – | inconclusive: 6.57 µM [inhibitor, partial curve, poor fit]
Cc1nnc(N/N=C/c2ccc(-c3ccc(Br)cc3)o2)n1N | – | active: 3.7 µM
CN1C(=O)c2ccccc2C(C(=O)NCCCN2CCCC2)C1c1c[nH]c2ccccc12 (configuration not stated) | – | active: 10.4 µM
O=C(NNC(=O)c1ccncc1)c1ccccc1 | – | inconclusive: 0.0828 µM [inhibitor, full curve, poor fit]
Cc1cccc(NC(=O)C2CCCN(S(=O)(=O)c3cccs3)C2)c1C (configuration not stated) | – | inconclusive: 18.5 µM [inhibitor, single point]
COc1cc(-n2c(C)nc3cc(C(=O)NCc4ccco4)ccc32)cc(OC)c1OC | – | inconclusive: 16.5 µM [inhibitor, single point]
COc1cccc(C(=O)NC2CCCN(C3Cc4ccccc4C3)C2)c1OC (configuration not stated) | inactive: 3.64% | –
O=C(NCc1nc2ccccc2[nH]1)C1=C[C@H](C2CCCCC2)C[C@H](OCc2ccc(CO)cc2)O1 | – | inconclusive: 4.65 µM [inhibitor, partial curve]
O=C(Nc1ccc(C(=O)O)cc1)/C(=C\c1ccco1)NC(=O)c1ccco1 | – | inconclusive: 11.7 µM [inhibitor, partial curve]
CC(C)(C)c1ccc(CN2CCN([C@H](c3ccccc3)c3ccc(Cl)cc3)CC2)cc1 | – | active: 7.57 µM
O=C1Nc2ccc(Cl)cc2C(C#CC2CC2)(C(F)(F)F)O1 (configuration not stated) | – | inactive and inconclusive: 19 µM [inhibitor, single point]
O=C(O)c1ccc(Cl)c(S(=O)(=O)NCC2CCCO2)c1 (configuration not stated) | – | inconclusive: 11.7 µM [inhibitor, partial curve, poor fit]
CC(c1ccccc1F)n1cc(C(=O)NCc2ccncc2)nn1 (configuration not stated) | – | active: 0.522 µM
Cc1ccc(N(C(=O)c2snc(C(N)=O)c2N)C(C(=O)NCC2CCCO2)c2ccc(C)o2)c(C)c1 (configuration not stated) | – | inconclusive: 8.28 µM [inhibitor, partial curve]
COc1ccc(CCNC(=O)CCCCCNc2nc(=S)[nH]c3ccccc23)cc1OC | – | active: 10.4 µM
CC1CCCC(NC(=O)c2cccc(S(=O)(=O)NCc3ccccc3)c2)C1C (configuration not stated) | – | inconclusive: 18.5 µM [inhibitor, single point]
CC(C)C(=O)NC(c1ccc(Cl)cc1Cl)c1ccc2cccnc2c1O (configuration not stated) | – | inconclusive: 0.522 µM [inhibitor, full curve, poor fit]
COCC(=O)Nc1ccc(S(=O)(=O)N2CCCC2)cc1 | inactive: 39.8% | –
O=C(Cc1ccc(F)cc1)N1CCC(N2CCC(C(=O)N3CCOCC3)CC2)CC1 | inactive: 2.62% | –
Cc1c(C)n(Cc2ccccc2)c2ccc(C(=O)OCCCN(C)C)cc12 | – | active: 4.15 µM

Taken from above (3 entries):
Compound | activity change, negative = inhibition | Potency
Cc1cccc(NC(=O)C2CCCN(S(=O)(=O)c3cccs3)C2)c1C (configuration not stated) | – | inconclusive: 18.5 µM [inhibitor, single point]
COc1cc(-n2c(C)nc3cc(C(=O)NCc4ccco4)ccc32)cc(OC)c1OC | – | inconclusive: 16.5 µM [inhibitor, single point]
COc1cccc(C(=O)NC2CCCN(C3Cc4ccccc4C3)C2)c1OC (configuration not stated) | inactive: 3.64% | –

Later entries:

Compound | activity change, negative = inhibition | Potency
O=S(=O)(NCc1csc(-c2ccccc2)n1)c1ccc(Cl)s1 | – | inconclusive: 0.294 µM [inhibitor, full curve, poor fit]
CN(C(=O)COc1nnc(-c2cccs2)c(-c2cccs2)n1)c1ccccc1 | – | inconclusive: 13.1 µM [inhibitor, partial curve]
Cn1c(N)c(C(=O)COC(=O)C2(c3ccc(F)cc3)CCCC2)c(=O)n(C)c1=O | – | active: 2.33 µM
Cc1ccccc1NC(=O)C1C2CCCC1C2c1ccccc1 (configuration not stated) | – | inconclusive: 2.62 µM [inhibitor, partial curve, poor fit]
CC(C)Oc1ccc(C2CC(=O)N(c3ccccc3)C2=O)cc1 (configuration not stated) | inactive: 13.4% | –
CCN1C(=O)Cc2cc(S(=O)(=O)NCCc3ccccc3)ccc21 | inactive: 16.1% | –
Cn1c2ccccc2c2nnc(NN)nc21 | inactive: 8.42% | –
CS(=O)(=O)c1ccc(C(=O)OCc2nnc(-c3ccc(Cl)cc3)o2)cc1[N+](=O)[O-] | inactive: -1.63% | –
COC(=O)CC(NC(=O)Nc1ccccc1F)c1ccc2c(c1)OCO2 (configuration not stated) | inactive: 0.696% | –
CC(=O)N1CCOc2ccc(S(=O)(=O)N3CCC(C(=O)NCc4ccc(C)cc4)CC3)cc21 | inactive: 85.3% | –
O=C(COc1ccccc1Cl)Nc1nnc(S(=O)(=O)N2CCCCCC2)s1 | – | inconclusive: 18.5 µM [inhibitor, single point]
COc1cc(C(CC(=O)Nc2ccccn2)N2Cc3ccccc3C2=O)cc(OC)c1OC (configuration not stated) | – | inconclusive: 16.5 µM [inhibitor, single point]
N#Cc1ccc(S(=O)(=O)N2CCN(CC(=O)Nc3ccccc3C(=O)NC3CC3)CC2)cc1 | – | inconclusive: 10.4 µM [inhibitor, single point]
CCOc1cccc2c1OC1(C)CC2NC(=O)N1c1cccc(C(=O)NCc2ccccn2)c1 (configuration not stated) | inactive: 16% | –
CCOC(=O)c1c(NC(=O)CSc2nnc(-c3c[nH]c4ccccc34)n2CC)sc2c1CCCC2 | – | active: 11.7 µM
COc1cc(/C=N/NS(=O)(=O)c2ccc(C(C)(C)C)cc2)cc([N+](=O)[O-])c1O | – | inconclusive: 10.4 µM [inhibitor, single point]
O=C(C1CC1)N1CCc2cc(S(=O)(=O)N3CCN(c4ccccc4)CC3)ccc21 | – | inconclusive: 4.15 µM [inhibitor, partial curve]
N[C@@H](Cc1c[nH]c2ccccc12)c1nnc(SCc2ccc(F)cc2)o1 | – | inconclusive: 16.5 µM [inhibitor, single point]
CC1(C)OC2CC3C4CC(F)C5=CC(=O)C=CC5(C)C4(F)C(O)CC3(C)C2(C(=O)CO)O1 (configuration not stated) | – | active: 5.86 µM
O=C(C[n+]1cccc(NC(=O)c2ccccc2)c1)c1cccc([N+](=O)[O-])c1 | – | inconclusive: 7.38 µM [inhibitor, partial curve, poor fit]
CCCn1nnnc1NC(=O)c1cc(Cl)ccc1Cl | – | inconclusive: 14.7 µM [inhibitor, single point]
Fc1ccc(N/N=C2/CC(c3ccccc3)Oc3ccccc32)c(F)c1 (configuration not stated) | – | inconclusive: 18.5 µM [inhibitor, single point]
CCCn1c2ccccc2c2cnn(CC(=O)NCCCOC)c(=O)c21 | – | inconclusive: 10.4 µM [inhibitor, single point]

Given in CSV form: entries from further up
Compound,"activity change, negative = inhibition",Potency
CCOC(=O)c1c(NC(=O)CSc2nnc(-c3c[nH]c4ccccc34)n2CC)sc2c1CCCC2,–,active: 11.7 µM
O=C(C[n+]1cccc(NC(=O)c2ccccc2)c1)c1cccc([N+](=O)[O-])c1,–,"inconclusive: 7.38 µM [inhibitor, partial curve, poor fit]"

Following part:

Compound | activity change, negative = inhibition | Potency
COc1ccccc1Nc1nnc(SCC(=O)c2cc(C)n(CC3CCCO3)c2C)s1 (configuration not stated) | – | active: 4.65 µM
Cn1cnnc1Sc1nc([N+](=O)[O-])nn1C | inactive: 49% | –
CCCNC(=S)N1CCC(Cc2ccccc2)CC1 | – | inconclusive: 18.5 µM [inhibitor, single point]
CCOc1ccc(CNC(=O)CCCn2nc(CC)n3c(cc4occc43)c2=O)cc1 | inactive: 55.7% | –
C[C@]12C=CC(=O)C=C1CC[C@@H]1[C@@H]2[C@@H](O)C[C@@]2(C)[C@H]1CC[C@]2(O)C(=O)COC(=O)CCC(=O)O | – | inconclusive: 20.8 µM [inhibitor, partial curve, poor fit]
C=CCn1cccc(C(=O)Nc2ccc(OC)cc2)c1=O | – | inconclusive: 0.0093 µM [inhibitor, full curve, poor fit]
COCC1CCCN(Cc2cn(-c3ccccc3)nc2-c2ccc3c(c2)OCO3)C1 (configuration not stated) | – | inconclusive: 10.4 µM [inhibitor, single point]
O=C(N/N=C/c1ccc([N+](=O)[O-])o1)c1cn(-c2ccccc2)nc1-c1ccccc1 | – | inconclusive: 11.7 µM [inhibitor, single point]
COc1ccc(S(=O)(=O)N2CCN(C(=O)NCc3ccc(OC)c(OC)c3)CC2)cc1 | – | inconclusive: 14.7 µM [inhibitor, partial curve, poor fit]
Cc1ccc(C2CN(C)C3(C(=O)Nc4ccccc43)C23COc2ccccc2C3=O)cc1 (configuration not stated) | – | inconclusive: 5.86 µM [inhibitor, partial curve, poor fit]
Cc1cccc(CCNC(=O)c2cc(=O)[nH]c3ccc(Br)cc23)c1 | – | active: 10.4 µM
Cc1nnc(N/N=C/c2ccc(O)c([N+](=O)[O-])c2)[nH]c1=O | – | inconclusive: 14.7 µM [inhibitor, single point]
CCN(CC)S(=O)(=O)c1ccc(S(=O)(=O)N2CCC(C(=O)NC3CCN(Cc4ccccc4)CC3)CC2)cc1 | – | inconclusive: 11.7 µM [inhibitor, single point]
CC(C)NC(=O)CC(=O)N/N=C/c1c(F)cccc1Cl | – | inconclusive: 13.1 µM [inhibitor, single point]
Cc1n[nH]c(C)c1CCCCOc1ccccc1[N+](=O)[O-] | – | inconclusive: 3.29 µM [inhibitor, partial curve, poor fit]
CSC1=NCCN1C(=O)c1ccc2c(c1)OCO2 | – | inconclusive: 3.7 µM [inhibitor, full curve, poor fit]
COc1ccc(OC)c(S(=O)(=O)Nc2ccc(-c3ccc4nncn4n3)cc2)c1 | – | inconclusive: 18.5 µM [inhibitor, single point]
COc1ccc(N(CC(=O)NC2CC3CCC2C3)S(=O)(=O)c2ccc(C)cc2)cc1 (configuration not stated) | – | active: 13.1 µM
CN1CCN(S(=O)(=O)c2cccc(C(=O)Nc3sccc3C#N)c2)CC1 | – | inconclusive: 10.4 µM [inhibitor, single point]
COc1ccc(C2C(C#N)=C(N)OC(C(C)(C)C)=C2C#N)cc1OC (configuration not stated) | inactive: -9.86% | –
COc1ccc(-c2nnc(N(C)C(=O)c3ccno3)s2)cc1 | – | inconclusive: 0.0262 µM [inhibitor, full curve]
